Here are results for two substances from publication PMC6115418.

The chains behind the UniProt entries cited, without tags or fusion partners. Where a name states a change or a piece, a line headed by the entry shows the natural chain unless it says otherwise. A line that says so, or that is headed by a name, gives the form on record, which may keep a tag or linker. Residues count along the entry.
Ezh2-M (Q15910, residues 325-525): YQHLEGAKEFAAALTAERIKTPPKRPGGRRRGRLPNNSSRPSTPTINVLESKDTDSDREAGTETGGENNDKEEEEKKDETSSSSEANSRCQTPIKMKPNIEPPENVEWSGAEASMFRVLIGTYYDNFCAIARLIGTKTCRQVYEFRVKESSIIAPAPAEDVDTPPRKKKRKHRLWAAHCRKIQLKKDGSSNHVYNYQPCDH
full-length Ezh2 (Q15910, form named): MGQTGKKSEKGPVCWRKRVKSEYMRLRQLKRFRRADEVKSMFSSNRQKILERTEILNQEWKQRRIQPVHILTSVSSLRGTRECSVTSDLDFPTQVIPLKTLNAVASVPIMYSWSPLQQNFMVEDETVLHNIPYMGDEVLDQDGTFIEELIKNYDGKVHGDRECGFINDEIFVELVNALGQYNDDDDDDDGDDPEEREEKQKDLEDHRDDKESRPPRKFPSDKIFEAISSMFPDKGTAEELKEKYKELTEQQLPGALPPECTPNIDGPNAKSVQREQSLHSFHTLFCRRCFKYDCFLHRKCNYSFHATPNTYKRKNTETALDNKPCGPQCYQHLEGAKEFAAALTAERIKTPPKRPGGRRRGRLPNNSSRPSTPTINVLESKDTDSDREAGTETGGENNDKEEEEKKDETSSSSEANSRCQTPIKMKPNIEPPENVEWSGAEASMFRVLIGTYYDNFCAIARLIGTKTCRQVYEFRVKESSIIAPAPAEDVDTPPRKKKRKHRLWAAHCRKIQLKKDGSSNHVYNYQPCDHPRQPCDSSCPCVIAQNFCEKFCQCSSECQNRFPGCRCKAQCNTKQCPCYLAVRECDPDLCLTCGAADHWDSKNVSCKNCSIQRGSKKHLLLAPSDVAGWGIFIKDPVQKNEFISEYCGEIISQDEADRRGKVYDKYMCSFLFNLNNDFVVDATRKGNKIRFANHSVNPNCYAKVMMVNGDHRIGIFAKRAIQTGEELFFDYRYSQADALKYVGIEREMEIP
Ezh2-M T350A/T492A (Q15910, form named): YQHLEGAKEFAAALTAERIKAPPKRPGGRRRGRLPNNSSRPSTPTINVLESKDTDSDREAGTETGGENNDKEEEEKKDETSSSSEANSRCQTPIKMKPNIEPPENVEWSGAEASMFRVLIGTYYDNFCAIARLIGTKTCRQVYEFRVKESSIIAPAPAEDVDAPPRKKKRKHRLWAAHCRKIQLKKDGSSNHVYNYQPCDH
UniProt Q9HAU4: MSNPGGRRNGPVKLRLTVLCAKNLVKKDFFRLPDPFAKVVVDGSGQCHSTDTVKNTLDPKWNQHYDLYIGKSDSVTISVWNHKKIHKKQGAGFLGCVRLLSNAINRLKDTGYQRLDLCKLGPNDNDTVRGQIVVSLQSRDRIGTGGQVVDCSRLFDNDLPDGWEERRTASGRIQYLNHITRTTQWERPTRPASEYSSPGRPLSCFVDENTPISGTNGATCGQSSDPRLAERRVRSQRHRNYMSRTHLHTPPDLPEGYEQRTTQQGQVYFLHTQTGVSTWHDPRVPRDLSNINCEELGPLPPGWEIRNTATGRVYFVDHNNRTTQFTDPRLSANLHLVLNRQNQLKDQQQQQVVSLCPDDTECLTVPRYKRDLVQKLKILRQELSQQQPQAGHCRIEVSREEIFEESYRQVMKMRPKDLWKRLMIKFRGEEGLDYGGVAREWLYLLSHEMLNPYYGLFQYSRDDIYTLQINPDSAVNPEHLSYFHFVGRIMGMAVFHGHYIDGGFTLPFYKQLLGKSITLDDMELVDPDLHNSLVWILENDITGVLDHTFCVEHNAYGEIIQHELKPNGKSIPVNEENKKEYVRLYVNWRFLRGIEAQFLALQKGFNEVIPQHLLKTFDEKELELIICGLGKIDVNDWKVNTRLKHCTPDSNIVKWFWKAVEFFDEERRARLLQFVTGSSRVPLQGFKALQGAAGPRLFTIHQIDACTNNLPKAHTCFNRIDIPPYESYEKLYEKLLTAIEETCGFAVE

Common to all, as to assay: co-IP; HEK293T co-transfected for 48 h; lysis in 20 mM Tris pH 7.4, 150 mM NaCl, 1% Triton X-100; anti-Flag beads overnight at 4 °C, three washes, western blot; for the Ezh2-M mutant panel cells were pre-treated with MG132 for 6 h
A general note: A western blot detects proteins with antibodies after separation by electrophoresis.

Test [1] addresses full-length Ezh2 (UniProt Q15910).
In test [2] the target is Ezh2-M (amino acid residues 330-530) (UniProt Q15910).
Test [3] addresses Ezh2-M T350A/T492A (UniProt Q15910).

Results are given in words; binding and its absence hold for the method and conditions named. In cells and extracts the contact can be indirect. Binding calls can cover weak binding; strength is not graded here.

Turning to “HECT domain of Smurf2 (from UniProt Q9HAU4) (domain or fragment)”, the binding entry in test [1], in test [2] and in test [3] was “binds” throughout.

“C2 domain of Smurf2 (from UniProt Q9HAU4) (domain or fragment)”: the binding result in test [1] is reported as “no binding”.
